The results in this text go back to paper PMC5824891.

No constants are given. Whether binding was seen depends on the method and setting. In cells and extracts the contact can be indirect. Some results given as binding are weak or reduced against the parent protein; the word gives no strength. Sequences can lack the tags named with a protein.

What all share (test): co-IP; IP of GFP-tagged subunits from HeLa cells co-expressing HA-VIPAS39 alone (left panel) or HA-VIPAS39 and HA-Vps33B (right panel), blot for HA; lysis buffer 40 mM TRIS pH 7.4, 100 mM NaCl, 0.1% TX-100, 5 mM EDTA; also read after prolonged exposure of the blot
In one assay the target is T1, GFP-Vps11 (UniProt Q9H270).
T1 sequence: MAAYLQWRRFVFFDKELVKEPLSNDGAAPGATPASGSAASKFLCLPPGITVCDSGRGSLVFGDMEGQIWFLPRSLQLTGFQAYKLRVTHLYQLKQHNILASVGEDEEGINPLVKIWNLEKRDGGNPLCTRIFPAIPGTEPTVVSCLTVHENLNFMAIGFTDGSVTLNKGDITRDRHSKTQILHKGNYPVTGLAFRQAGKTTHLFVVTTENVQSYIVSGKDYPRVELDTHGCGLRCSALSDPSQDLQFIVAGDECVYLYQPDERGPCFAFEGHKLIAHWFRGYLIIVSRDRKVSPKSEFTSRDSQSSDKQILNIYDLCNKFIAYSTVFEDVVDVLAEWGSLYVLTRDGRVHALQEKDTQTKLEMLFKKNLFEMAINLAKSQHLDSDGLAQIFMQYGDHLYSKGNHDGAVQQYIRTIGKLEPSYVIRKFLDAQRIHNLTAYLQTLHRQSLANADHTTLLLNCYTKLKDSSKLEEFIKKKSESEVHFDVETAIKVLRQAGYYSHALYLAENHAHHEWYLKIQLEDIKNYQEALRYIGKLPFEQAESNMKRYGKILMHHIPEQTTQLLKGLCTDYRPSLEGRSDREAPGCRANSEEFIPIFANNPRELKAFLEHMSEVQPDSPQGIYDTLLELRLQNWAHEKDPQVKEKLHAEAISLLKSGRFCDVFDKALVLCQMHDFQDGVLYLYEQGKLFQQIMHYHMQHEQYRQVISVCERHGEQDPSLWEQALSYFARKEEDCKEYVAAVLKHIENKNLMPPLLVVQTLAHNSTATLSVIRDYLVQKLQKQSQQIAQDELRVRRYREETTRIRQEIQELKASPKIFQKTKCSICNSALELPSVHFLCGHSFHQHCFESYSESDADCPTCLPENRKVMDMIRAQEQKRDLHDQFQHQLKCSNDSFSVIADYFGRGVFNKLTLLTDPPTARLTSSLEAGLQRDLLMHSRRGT

The next assay addresses T2, GFP-Vps3 (UniProt Q8WUH2).
T2 sequence: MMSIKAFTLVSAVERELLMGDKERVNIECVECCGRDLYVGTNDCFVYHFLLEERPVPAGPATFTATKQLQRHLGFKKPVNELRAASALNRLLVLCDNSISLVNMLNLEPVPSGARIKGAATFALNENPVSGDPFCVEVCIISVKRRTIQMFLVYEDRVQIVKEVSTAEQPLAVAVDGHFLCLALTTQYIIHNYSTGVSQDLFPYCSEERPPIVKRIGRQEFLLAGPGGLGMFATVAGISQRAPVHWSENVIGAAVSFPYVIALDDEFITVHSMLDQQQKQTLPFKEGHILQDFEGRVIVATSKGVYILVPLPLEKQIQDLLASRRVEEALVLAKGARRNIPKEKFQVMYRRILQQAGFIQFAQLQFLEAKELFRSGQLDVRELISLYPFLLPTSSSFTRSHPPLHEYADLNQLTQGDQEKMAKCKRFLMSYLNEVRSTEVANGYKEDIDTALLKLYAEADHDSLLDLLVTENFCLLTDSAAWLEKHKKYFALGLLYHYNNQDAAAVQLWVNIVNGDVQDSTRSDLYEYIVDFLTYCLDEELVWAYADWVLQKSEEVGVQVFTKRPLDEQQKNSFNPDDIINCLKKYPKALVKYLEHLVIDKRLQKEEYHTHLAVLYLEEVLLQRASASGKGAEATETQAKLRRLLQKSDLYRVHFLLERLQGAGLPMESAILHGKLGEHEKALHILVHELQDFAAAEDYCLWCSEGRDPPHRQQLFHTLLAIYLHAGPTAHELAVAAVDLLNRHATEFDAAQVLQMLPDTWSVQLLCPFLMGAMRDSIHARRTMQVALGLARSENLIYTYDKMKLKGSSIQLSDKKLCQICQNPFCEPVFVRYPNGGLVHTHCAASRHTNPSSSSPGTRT

The target in a further assay is T3, GFP-Vps33B (UniProt Q9H267).
T3 sequence: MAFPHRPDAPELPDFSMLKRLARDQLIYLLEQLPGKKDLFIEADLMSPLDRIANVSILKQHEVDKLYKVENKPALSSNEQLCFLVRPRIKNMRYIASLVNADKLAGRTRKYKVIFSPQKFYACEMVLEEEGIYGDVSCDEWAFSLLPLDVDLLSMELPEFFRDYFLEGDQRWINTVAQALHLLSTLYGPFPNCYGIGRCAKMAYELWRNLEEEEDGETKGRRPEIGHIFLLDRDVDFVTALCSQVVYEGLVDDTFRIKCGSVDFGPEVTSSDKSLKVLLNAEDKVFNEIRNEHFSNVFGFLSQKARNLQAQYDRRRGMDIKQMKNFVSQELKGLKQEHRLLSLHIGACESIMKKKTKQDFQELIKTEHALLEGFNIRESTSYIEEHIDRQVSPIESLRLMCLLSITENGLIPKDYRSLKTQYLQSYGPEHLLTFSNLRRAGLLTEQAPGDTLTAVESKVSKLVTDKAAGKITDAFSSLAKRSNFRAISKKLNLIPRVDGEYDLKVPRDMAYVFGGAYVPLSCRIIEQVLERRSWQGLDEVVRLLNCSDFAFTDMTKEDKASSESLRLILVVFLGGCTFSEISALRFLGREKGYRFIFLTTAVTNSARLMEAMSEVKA

B1: HA-VIPAS39 (protein, UniProt Q9H9C1 1-493)
chain: MNRTKGDEEEYWNSSKFKAFTFDDEDDELSQLKESKRAVNSLRDFVDDDDDDDLERVSWSGEPVGSISWSIRETAGNSGSTHEGREQLKSRNSFSSYAQLPKPTSTYSLSSFFRGRTRPGSFQSLSDALSDTPAKSYAPELGRPKGEYRDYSNDWSPSDTVRRLRKGKVCSLERFRSLQDKLQLLEEAVSMHDGNVITAVLIFLKRTLSKEILFRELEVRQVALRHLIHFLKEIGDQKLLLDLFRFLDRTEELALSHYREHLNIQDPDKRKEFLKTCVGLPFSAEDSAHIQDHYTLLERQIIIEANDRHLESAGQTEIFRKHPRKASILNMPLVTTLFYSCFYHYTEAEGTFSSPVNLKKTFKIPDKQYVLTALAARAKLRAWNDVDALFTTKNWLGYTKKRAPIGFHRVVEILHKNNAPVQILQEYVNLVEDVDTKLNLATKFKCHDVVIDTYRDLKDRQQLLAYRSKVDKGSAEEEKIDALLSSSQIRWKN
For B1, the binding result in the assay with GFP-Vps11 is “no binding”; in the assay with GFP-Vps3, “binds weakly”; with GFP-Vps33B, “binds”.

B2: HA-Vps33B (protein, UniProt Q9H267 1-617)
chain: MAFPHRPDAPELPDFSMLKRLARDQLIYLLEQLPGKKDLFIEADLMSPLDRIANVSILKQHEVDKLYKVENKPALSSNEQLCFLVRPRIKNMRYIASLVNADKLAGRTRKYKVIFSPQKFYACEMVLEEEGIYGDVSCDEWAFSLLPLDVDLLSMELPEFFRDYFLEGDQRWINTVAQALHLLSTLYGPFPNCYGIGRCAKMAYELWRNLEEEEDGETKGRRPEIGHIFLLDRDVDFVTALCSQVVYEGLVDDTFRIKCGSVDFGPEVTSSDKSLKVLLNAEDKVFNEIRNEHFSNVFGFLSQKARNLQAQYDRRRGMDIKQMKNFVSQELKGLKQEHRLLSLHIGACESIMKKKTKQDFQELIKTEHALLEGFNIRESTSYIEEHIDRQVSPIESLRLMCLLSITENGLIPKDYRSLKTQYLQSYGPEHLLTFSNLRRAGLLTEQAPGDTLTAVESKVSKLVTDKAAGKITDAFSSLAKRSNFRAISKKLNLIPRVDGEYDLKVPRDMAYVFGGAYVPLSCRIIEQVLERRSWQGLDEVVRLLNCSDFAFTDMTKEDKASSESLRLILVVFLGGCTFSEISALRFLGREKGYRFIFLTTAVTNSARLMEAMSEVKA
For B2, in the assay with GFP-Vps11, the binding result is given as “no binding”.
